The source of these data is article PMC10696739.

The chains behind the UniProt entries cited, without tags or fusion partners.
UniProt Q61501: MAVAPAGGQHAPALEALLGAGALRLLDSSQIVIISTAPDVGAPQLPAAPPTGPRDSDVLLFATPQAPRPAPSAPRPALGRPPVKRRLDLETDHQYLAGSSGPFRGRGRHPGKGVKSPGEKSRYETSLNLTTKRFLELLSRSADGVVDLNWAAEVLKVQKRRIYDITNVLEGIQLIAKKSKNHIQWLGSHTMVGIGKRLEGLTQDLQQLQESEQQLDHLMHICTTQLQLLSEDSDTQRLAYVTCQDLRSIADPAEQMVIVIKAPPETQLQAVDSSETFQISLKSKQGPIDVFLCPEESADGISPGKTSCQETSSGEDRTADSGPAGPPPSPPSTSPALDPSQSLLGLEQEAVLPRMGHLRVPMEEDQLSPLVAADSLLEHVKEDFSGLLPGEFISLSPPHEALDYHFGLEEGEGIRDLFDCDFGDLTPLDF
UniProt Q6NVF0: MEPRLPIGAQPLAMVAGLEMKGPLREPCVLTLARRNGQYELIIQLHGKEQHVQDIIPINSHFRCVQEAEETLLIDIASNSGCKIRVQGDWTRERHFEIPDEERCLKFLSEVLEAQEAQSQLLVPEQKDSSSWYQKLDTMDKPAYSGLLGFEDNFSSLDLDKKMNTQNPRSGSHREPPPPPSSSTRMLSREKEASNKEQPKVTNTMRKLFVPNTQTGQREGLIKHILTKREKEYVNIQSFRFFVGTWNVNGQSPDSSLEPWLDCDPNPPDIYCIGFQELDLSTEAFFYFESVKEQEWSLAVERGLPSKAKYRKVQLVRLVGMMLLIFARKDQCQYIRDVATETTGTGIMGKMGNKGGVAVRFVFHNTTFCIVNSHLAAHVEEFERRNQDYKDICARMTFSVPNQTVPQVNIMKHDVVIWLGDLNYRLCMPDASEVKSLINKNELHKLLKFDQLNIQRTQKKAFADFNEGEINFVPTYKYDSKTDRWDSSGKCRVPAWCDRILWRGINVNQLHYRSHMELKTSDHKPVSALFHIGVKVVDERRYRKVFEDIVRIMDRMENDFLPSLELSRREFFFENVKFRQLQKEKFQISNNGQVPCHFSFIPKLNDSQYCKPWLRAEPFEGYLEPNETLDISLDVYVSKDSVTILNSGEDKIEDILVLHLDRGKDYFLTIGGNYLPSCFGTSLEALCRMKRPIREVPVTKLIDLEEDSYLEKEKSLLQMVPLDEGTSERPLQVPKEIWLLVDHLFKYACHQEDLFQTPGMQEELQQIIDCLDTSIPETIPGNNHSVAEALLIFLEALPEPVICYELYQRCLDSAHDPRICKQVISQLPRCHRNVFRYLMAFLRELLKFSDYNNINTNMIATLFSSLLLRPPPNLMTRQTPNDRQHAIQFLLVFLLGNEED

No constants are given. Whether binding was seen depends on the method and setting. In cells and extracts the contact can be indirect. Some results given as binding are weak or reduced against the parent protein; the word gives no strength.

The target of assay [1] is T1, CDKN2D (mouse (endogenous in MPC5)) (UniProt Q60773).
T1 sequence: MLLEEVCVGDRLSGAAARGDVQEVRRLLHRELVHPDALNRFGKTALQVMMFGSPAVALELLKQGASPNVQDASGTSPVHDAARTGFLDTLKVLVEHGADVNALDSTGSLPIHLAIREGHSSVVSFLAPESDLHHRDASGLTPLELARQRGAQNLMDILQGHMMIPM
Nature of the assay: co-IP; anti-OCRL1, anti-CCND1, anti-E2F1 or anti-CDKN2D antibody (control IgG) on Protein-G Dynabeads in PBS with 0.02% Tween; total cell lysate of cultured podocytes added, rotated 24 h; eluted proteins detected by immunoblot; endogenous proteins.

Assay [2] addresses E2F1 (mouse (endogenous in MPC5)) (UniProt Q61501). The assay is described as above.

In the case of “OCRL inositol polyphosphate-5-phosphatase (OCRL1) (from UniProt Q6NVF0 1-900)”, the binding entry in assay [1] and in assay [2] was “binds” each time.
